At least one compound was matched to its structure with a doubt left.
How the values were obtained:
[1] = subjects who take it; cited from earlier work
resting state networks = test: Resting state functional connectivity brain imaging before and after lithium monotherapy; assay type: in vivo, human; conditions: functional resting scan, p=0.05 corrected

## [Li] [Lithium, lithium]
[1]
  suicides and overall mortality: decrease suicides as well as overall mortality
Resting state networks
  changes within resting state networks: associated with changes within various resting state networks and in particular the task-positive network
